In patent publication US9950062B2, “Compounds and compositions as TLR activity modulators” (priority 2009, dated 2018):

System: MenB antigens 287-953, 936-741 and 961c
Test: SDS-PAGE of MenB antigen binding to compound-modified aluminum hydroxide adjuvant
Parameters: species or system Neisseria meningitis
Conditions: compound-modified alum, Compound:Alum 1:6 weight ratio, pH 6.5; antigens 287-953, 936-741, 961c

Structure (SMILES)	binding of MenB antigens to aluminum hydroxide adjuvant in presence of bound compound (SDS-PAGE)
Cc1ccc2c(c1)nc(N)c1ncc(CCc3ccc(OCCCP(=O)(O)O)cc3C)cc12 [Compound 1, 3-(4-(2-(5-amino-8-methylbenzo[f][1,7]naphthyridin-2-yl)ethyl)-3-methylphenoxy)propylphosphonic acid]	as effectively
Cc1cc(OCCCC(F)(F)P(=O)(O)O)ccc1CCc1cnc2c(N)nc3cc(CCC(=O)O)ccc3c2c1 [Compound 16, 3-(5-amino-2-(4-(4,4-difluoro-4-phosphonobutoxy)-2-methylphenethyl)benzo[f][1,7]naphthyridin-8-yl)propanoic acid]	completely adsorbed
Cc1cc(OCCOCCOCCC(F)(F)P(=O)(O)O)ccc1CCc1cnc2c(N)nc3cc(CCC(=O)O)ccc3c2c1 [Compound 17, 3-(5-amino-2-(4-(2-(2-(3,3-difluoro-3-phosphonopropoxy)ethoxy)ethoxy)-2-methylphenethyl)benzo[f][1,7]naphthyridin-8-yl)propanoic acid]	completely adsorbed
